Reference: publication doi:10.1101/2023.02.16.528810
Results are given in words; binding and its absence hold for the method and conditions named. In cells and extracts the contact can be indirect. Some entries that bind do so weakly or less than the wild type. Tags and fused reporters may be left off the sequences shown.

Sequences of proteins named here, by UniProt entry; tags and fusion partners are left off.
UniProt P41208: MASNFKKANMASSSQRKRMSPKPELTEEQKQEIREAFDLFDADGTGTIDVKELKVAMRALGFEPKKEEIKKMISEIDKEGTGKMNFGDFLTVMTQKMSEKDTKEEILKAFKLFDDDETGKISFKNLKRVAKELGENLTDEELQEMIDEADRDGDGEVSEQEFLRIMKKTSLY

T1: GFP-CCDC15 (UniProt Q0P6D6)
T1 sequence: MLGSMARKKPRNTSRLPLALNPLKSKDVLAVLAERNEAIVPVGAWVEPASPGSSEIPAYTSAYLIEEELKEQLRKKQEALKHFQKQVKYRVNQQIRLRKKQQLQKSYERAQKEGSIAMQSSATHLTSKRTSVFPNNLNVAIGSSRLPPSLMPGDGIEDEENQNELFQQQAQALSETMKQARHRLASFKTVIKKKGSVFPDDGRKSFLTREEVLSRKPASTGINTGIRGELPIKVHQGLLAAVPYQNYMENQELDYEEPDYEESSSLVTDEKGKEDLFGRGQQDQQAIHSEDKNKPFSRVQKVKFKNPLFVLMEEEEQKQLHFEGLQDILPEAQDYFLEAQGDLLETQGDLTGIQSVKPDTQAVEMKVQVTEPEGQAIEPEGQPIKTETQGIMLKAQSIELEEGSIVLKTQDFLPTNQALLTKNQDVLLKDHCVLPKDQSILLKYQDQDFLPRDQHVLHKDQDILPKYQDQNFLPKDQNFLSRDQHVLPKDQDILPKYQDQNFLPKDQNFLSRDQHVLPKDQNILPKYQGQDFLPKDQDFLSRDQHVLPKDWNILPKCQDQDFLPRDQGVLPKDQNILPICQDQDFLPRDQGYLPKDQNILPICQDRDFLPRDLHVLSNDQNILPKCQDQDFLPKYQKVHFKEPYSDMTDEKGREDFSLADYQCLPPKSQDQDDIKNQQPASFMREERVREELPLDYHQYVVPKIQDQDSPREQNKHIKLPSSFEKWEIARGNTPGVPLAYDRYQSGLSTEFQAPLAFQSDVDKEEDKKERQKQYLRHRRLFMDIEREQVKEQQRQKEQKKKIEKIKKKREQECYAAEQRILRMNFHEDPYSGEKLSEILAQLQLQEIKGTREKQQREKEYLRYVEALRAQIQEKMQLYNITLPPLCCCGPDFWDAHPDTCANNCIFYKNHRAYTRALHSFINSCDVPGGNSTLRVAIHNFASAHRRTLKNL

T2: GFP-POC1B (UniProt Q8TC44)
T2 sequence: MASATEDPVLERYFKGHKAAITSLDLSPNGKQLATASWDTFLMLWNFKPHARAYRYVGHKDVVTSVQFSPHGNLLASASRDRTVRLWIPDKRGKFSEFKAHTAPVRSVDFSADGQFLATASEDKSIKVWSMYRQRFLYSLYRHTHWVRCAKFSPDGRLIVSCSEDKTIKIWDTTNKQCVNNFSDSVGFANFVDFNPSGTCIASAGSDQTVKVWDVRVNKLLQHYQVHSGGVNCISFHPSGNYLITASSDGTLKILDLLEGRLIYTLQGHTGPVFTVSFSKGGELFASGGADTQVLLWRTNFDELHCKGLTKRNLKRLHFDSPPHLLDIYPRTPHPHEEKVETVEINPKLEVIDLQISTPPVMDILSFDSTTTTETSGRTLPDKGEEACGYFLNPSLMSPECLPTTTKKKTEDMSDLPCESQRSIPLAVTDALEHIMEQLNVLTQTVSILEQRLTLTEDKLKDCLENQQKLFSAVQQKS

B1: FLAG-FAM161A (protein, UniProt Q3B820 1-660)
chain: MATSHRVAKLVASSLQTPVNPITGARVAQYEREDPLKALAAAEAILEDEEEEKVAQPAGASADLNTSFSGVDEHAPISYEDFVNFPDIHHSNEEYFKKVEELKAAHIETMAKLEKMYQDKLHLKEVQPVVIREDSLSDSSRSVSEKNSYHPVSLMTSFSEPDLGQSSSLYVSSSEEELPNLEKEYPRKNRMMTYAKELINNMWTDFCVEDYIRCKDTGFHAAEKRRKKRKEWVPTITVPEPFQMMIREQKKKEESMKSKSDIEMVHKALKKQEEDPEYKKKFRANPVPASVFLPLYHDLVKQKEERRRSLKEKSKEALLASQKPFKFIAREEQKRAAREKQLRDFLKYKKKTNRFKARPIPRSTYGSTTNDKLKEEELYRNLRTQLRAQEHLQNSSPLPCRSACGCRNPRCPEQAVKLKCKHKVRCPTPDFEDLPERYQKHLSEHKSPKLLTVCKPFDLHASPHASIKREKILADIEADEENLKETRWPYLSPRRKSPVRCAGVNPVPCNCNPPVPTVSSRGREQAVRKSEKERMREYQRELEEREEKLKKRPLLFERVAQKNARMAAEKHYSNTLKALGISDEFVSKKGQSGKVLEYFNNQETKSVTEDKESFNEEEKIEERENGEENYFIDTNSQDSYKEKDEANEESEEEKSVEESH
B2: FlagBirA*-CCDC15 (protein, UniProt Q0P6D6 1-951)
chain: T1 sequence
B3: V5BirA*-SAS6 (protein, UniProt Q6UVJ0 1-657)
chain: MSQVLFHQLVPLQVKCKDCEERRVSIRMSIELQSVSNPVHRKDLVIRLTDDTDPFFLYNLVISEEDFQSLKFQQGLLVDFLAFPQKFIDLLQQCTQEHAKEIPRFLLQLVSPAAILDNSPAFLNVVETNPFKHLTHLSLKLLPGNDVEIKKFLAGCLKCSKEEKLSLMQSLDDATKQLDFTRKTLAEKKQELDKLRNEWASHTAALTNKHSQELTNEKEKALQAQVQYQQQHEQQKKDLEILHQQNIHQLQNRLSELEAANKDLTERKYKGDSTIRELKAKLSGVEEELQRTKQEVLSLRRENSTLDVECHEKEKHVNQLQTKVAVLEQEIKDKDQLVLRTKEAFDTIQEQKVVLEENGEKNQVQLGKLEATIKSLSAELLKANEIIKKLQGDLKTLMGKLKLKNTVTIQQEKLLAEKEEKLQKEQKELQDVGQSLRIKEQEVCKLQEQLEATVKKLEESKQLLKNNEKLITWLNKELNENQLVRKQDVLGPSTTPPAHSSSNTIRSGISPNLNVVDGRLTYPTCGIGYPVSSAFAFQNTFPHSISAKNTSHPGSGTKVQFNLQFTKPNASLGDVQSGATISMPCSTDKENGENVGLESKYLKKREDSIPLRGLSQNLFSNSDHQRDGTLGALHTSSKPTALPSASSAYFPGQLPNS

Assays:
Experiment in all cases: co-IP
[1] = molecular target: T1, GFP-CCDC15
[2] = molecular target: T2, GFP-POC1B
[3] = molecular target: GFP-Centrin-2 (UniProt P41208)

Binder	binding [1]	binding [2]	binding [3]
B1	binds	–	–
B2	–	binds	binds
B3	no binding	–	–
